# Patent publication US6387241B1, “Method of sterilization using ozone” (priority 1993, dated 2002)
# Experiment: Air venting and ozone venting of napthalene in Ottawa sand
# [1] = Ottawa sand, air stripping 23 hours followed by ozone-venting 3.2 hours
# [2] = dry Ottawa sand, air venting for 37 hours
smiles,measurement,setting,value
c1ccc2ccccc2c1 [napthalene],removal,[1],approx. 99.7%
same,residual,[1],0.65 mg/L
same,removal,[2],approximately 65%
same,residual concentration,[2],23.2 mg/kg soil
